Taken from: PubChem BioAssay AID504804 (Drosophila RNAi Screening Center, 2011)
The deposit covers about 19,000 reagents; below is an unselected part of those with a known target gene and a result. Of all reagents, 47 (0.25%) are marked active. 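Signals are raw, not normalised; exact z-scores behind calls not deposited; actives needed confirmation, so some wells reaching 2 SD are inactive.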 Reagents against one gene are numbered here.

Purpose: 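Knock-downs shielding fly cells from apoptosis caused by DNA damage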 (primary screen)
Cell system: Drosophila Kc cells
Knock-down reagent: long dsRNA against Drosophila genes, 0.5 µg dsRNA per well
Timing: 96 h (48 h knock-down, then 48 h drug)
Challenge: doxorubicin 5 µg/ml for 48 h, added 48 h after dsRNA
Measured: 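Luminescent ATP counts per replicate, not normalised, reflecting viable cells after 48 h dsRNA knock-down followed by 48 h of 5 µg/ml doxorubicin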
Direction: raw ATP luminescence: higher = more viable cells, protection from doxorubicin
Hit rule: 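Active when both duplicate wells lie at least 2 SD above the plate mean and protection is confirmed by rescreening and independent dsRNAs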

The first 2 records as a preview:
no.	target	reagent	raw ATP luminescence, replicate 1	raw ATP luminescence, replicate 2	outcome
1	CG7550	1	70913	78573	inactive
2	mRF1 (mitochondrial translation release factor 1)	1	86630	63007	inactive

Results, repeating the preview:
no.	target	reagent	raw ATP luminescence, replicate 1	raw ATP luminescence, replicate 2	outcome
1	CG7550	1	70913	78573	inactive
2	mRF1 (mitochondrial translation release factor 1)	1	86630	63007	inactive
3	bun (bunched)	1	2.35e5	2.33e5	inactive
4	bun (bunched)	2	2.00e5	1.82e5	inactive
5	bun (bunched)	3	33327	30203	inactive
6	loopin-1	1	49047	62690	inactive
7	bma (black match)	1	87437	68013	inactive
8	bma (black match)	2	79963	63693	inactive
9	eIF2A (eukaryotic translation initiation factor 2A)	1	25177	23707	inactive
10	blo (bloated)	1	43077	39663	inactive
11	Cpr35B (Cuticular protein 35B)	1	64760	88090	inactive
12	Lectin-galC1 (Galactose-specific C-type lectin)	1	68137	61337	inactive
13	Acbp5 (Acyl-CoA binding protein 5)	1	85543	74387	inactive
14	CG30010	1	93043	74500	inactive
15	CG4793	1	70293	75883	inactive
16	CG18249	1	56587	21173	inactive
17	muc (midline uncoordinated)	1	31380	19100	inactive
18	LManVI (Lysosomal alpha-mannosidase VI)	1	44867	70700	inactive
19	Obp19b (Odorant-binding protein 19b)	1	2.93e5	3.10e5	inactive
20	yellow-d2	1	31663	61950	inactive
21	Gem3 (Gemin 3)	1	71687	54583	inactive
22	CG31199	1	48843	42933	inactive
23	CG10345	1	32887	43957	inactive
24	hdly (hadley)	1	46120	68070	inactive
25	TwdlQ (TweedleQ)	1	23070	25970	inactive
26	alien	1	70330	58780	inactive
27	Neurl4 (Neuralized E3 ubiquitin protein ligase 4)	1	23193	24930	inactive
28	U2A	1	43677	73883	inactive
29	sprt (sprite)	1	61073	60843	inactive
30	Rack1 (Receptor of activated protein kinase C 1)	1	41097	77857	inactive
31	Sp7 (Serine protease 7)	1	66910	68927	inactive
32	Trf (TBP-related factor)	1	46467	98570	inactive
33	ng4 (new glue 4)	1	46190	64830	inactive
34	wun (wunen)	1	65050	71550	inactive
35	lt (light)	1	71340	74373	inactive
36	CG14860	1	84900	90130	inactive
37	Patsas	1	89547	77560	inactive
38	Josd (Josephin domain containing)	1	40310	47540	inactive
39	RtcB (RtcB RNA ligase)	1	54607	45900	inactive
40	CG15432	1	22537	30513	inactive
41	Spn31A (Serpin 31A)	1	45343	42700	inactive
42	CG30356	1	1.01e5	89857	inactive
43	Pmm2 (Phosphomannomutase type 2)	1	73300	55490	inactive
44	ninaB (neither inactivation nor afterpotential B)	1	84610	85200	inactive
45	CG34203	1	59713	52423	inactive
46	CG4576	1	74460	63410	inactive
47	CG5758	1	65913	69087	inactive
48	CG5758	2	69853	88663	inactive
49	Polr3E (RNA polymerase III subunit E)	1	76213	60473	inactive
50	CG17751	1	51040	59700	inactive
51	edin (elevated during infection)	1	49700	44523	inactive
52	spaw (spacewatch)	1	65513	66750	inactive
53	CG42591	1	1.26e5	1.20e5	inactive
54	Scr (Sex combs reduced)	1	33403	36393	inactive
55	CG9674	1	26023	20313	inactive
56	CG9674	2	67650	53220	inactive
57	CPT2 (Carnitine palmitoyltransferase 2)	1	54353	89710	inactive
58	SmE (Small ribonucleoprotein particle protein SmE)	1	35867	62153	inactive
59	Hr96 (Hormone receptor-like in 96)	1	39103	48923	inactive
60	yl (yolkless)	1	4.02e5	3.29e5	inactive
61	CG30380	1	71377	91817	inactive
62	Hyccin	1	58903	66023	inactive
63	CG6654	1	63160	21463	inactive
64	RpL22 (Ribosomal protein L22)	1	36320	53770	inactive
65	CG10467	1	85033	78047	inactive
66	CG14260	1	55420	54330	inactive
67	Muc30E (Mucin 30E)	1	2.89e5	2.83e5	inactive
68	whe (what else)	1	2.13e5	2.45e5	inactive
69	CG42570	1	58817	1.00e5	inactive
70	nonC (no-on-and-no-off transient C)	1	32330	41310	inactive
71	CG13455	1	66477	39663	inactive
72	CG32642	1	2.23e5	2.40e5	inactive
73	Npl4 (Nuclear protein localization 4)	1	65510	62710	inactive
74	pnt (pointed)	1	26290	21450	inactive
75	CycH (Cyclin H)	1	59833	53737	inactive
76	ND-75 (NADH dehydrogenase (ubiquinone) 75 kDa subunit)	1	29960	31450	inactive
77	f-cup (flyers-cup)	1	42197	31953	inactive
78	Ufsp1 (UFM1 specific peptidase 1)	1	1.02e5	94883	inactive
79	aralar1	1	2.99e5	2.70e5	inactive
80	Pnn (Pinin)	1	53333	49613	inactive
81	PNKP (Polynucleotide kinase 3'-phosphatase)	1	59973	56317	inactive
82	CG12817	1	54420	44670	inactive
83	IA-2 (IA-2 protein tyrosine phosphatase)	1	1.07e5	90810	inactive
84	IA-2 (IA-2 protein tyrosine phosphatase)	2	85263	76320	inactive
